Experimental data published in US20110263546A1, “Polyhydroxylated Bile Acids for Treatment of Biliary Disorders” (priority 2008, published 2011).
At least one compound was matched to its structure with a doubt left.

What was measured:
bsep KO mice = settings: dietary supplementation; cited from earlier work
wild-type mice = experiment: Bile flow rate (BFR) by bile duct cannulation after tail vein infusion; type: in vivo, mouse; settings: 65 μmol/kg body weight infusion

In the case of C[C@H](CCC(=O)O)[C@H]1CC[C@H]2[C@@H]3[C@@H](O)C[C@@H]4C[C@H](O)CC[C@]4(C)[C@H]3CC[C@]12C [UDC, ursodeoxycholic acid, reference compound], the “Effect on bile flow” value (bsep KO mice) is given as “did not result in greater bile flow” and the “Bile flow rate, UDC compared with THBAs at similar quantity” value (wild-type mice) is given as “similar”.
